Assay: Second messenger synthesis assay ([α-32P] NTPs, TLC, MS/NMR of products)
Type: biochemical
Experimental: Recombinant, candidate nucleotidyltransferase reactions combined 4 μL of 5× reaction buffer (250 mM CAPSO pH 9.4, […], 25 mM Mg (OAc) 2, 5 mM DTT), 2 μL of 10× NTPs, 1 uL [α-^32P] NTPs (˜1 uCi), 1 μL of candidate enzyme in storage buffer (˜20 μM), and a remaining volume of nuclease free water. The final reactions (50 mM CAPSO pH 9.4, 50 mM KCl, 5 mM Mg (OAc) 2, 1 mM DTT, ≤5% glycerol, 25-250 μM individual NTPs, trace amounts of [(-^32P] NTP, 1 μM enzyme) were started with addition of enzyme. Where indicated, pH was altered by replacing CAPSO buffer with appropriate buffer from “StockOptions pH Buffer Kit” (Hampton Research). When appropriate, Mg^2+ was replaced with an equimolar concentration of Mn^2+(MnCl2). cGAS reactions were always carried out with Tris at pH 7.5 and supplemented with 1 μM ISD45 dsDNA (Stetson & Medzhitov. (2006) Immunity 24:93-103). Reactions were carried out with 25 μM of each indicated NTP for FIGS. 1B, 3D, 8B, 8C, and 8D and for FIGS. 2C, 2G-2I, 5B, 5C, 10A-10D, 11A, 11B, and 13D. Reactions in all other figures were carried out with 250 μM NTP. The NTP/[α-^32P] NTPs in FIG. 1B are cGAS (ATP, GTP/[α-^32P] GTP), DncV (ATP, GTP/[α-^32P] ATP), DisA (ATP/[α-^32P] ATP), WspR (GTP/[xx-^32P] GTP), and CdnE (NTP/[{-^32P] NTP). P1 nuclease treated reactions in FIG. 1C and FIG. 11B are cGAS (ATP, GTP/[α-^32P] ATP), DncV (ATP, GTP/[α-^32P] GTP), CdnE (ATP, UTP/[<- ^32P] ATP), and Lp-CdnE02 (CTP, UTP/ [α-^32P] UTP) . Where indicated, nonhydrolyzable nucleotides [Ap (c) pp, Gp (c) pp, Cp (c) pp, or Up (n) pp (Jena)] were used at 25 μM.
Reactions were incubated for 2 h at 37° C. prior to analysis unless otherwise stated. Reactions were stopped by addition of 5 U of alkaline phosphatase (New England Biolabs) which removed triphosphates on remaining NTPs and converted the remaining nucleotide [α-^32P] to ^32Pi and allowed visualization of cyclic nucleotides. After a >20 min incubation, […] (PEI-cellulose) or 1 uL (silica) of the reaction was spotted 1.5 cm from the bottom of the TLC plate, spaced 0.8 cm apart. […]

Molecule	[α-32P] incorporated into the major product from ATP (silica TLC) [%]	[α-32P] incorporated into the major product from GTP (silica TLC) [%]	reaction buffer pH of optimal activity (pH titration in steps of 0.2 pH units)
Ec-CdnD02: CD-NTase from Enterobacter cloacae, SEQ ID NO: 112 (protein, listed as Enterobacter cloacae) MELQPQFNEFLANIRPTDTQKEDWKSGARTLRERLKNFEPLKEIVVSTFLQGSIRRSTAIRPLGDKRPDVDIVVVTNLDHTRMSPTDAMDLFIPFLEKYYPGKWETQGRSFGITLSYVELDLVITAIPESGAEKSHLEQLYKSESVLTVNSLEEQTDWRLNKSWTPNTGWLSESNSAQVEDAPASEWKAHPLVLPDREKNEWGRTHPLAQIRWTAEKNRLCNGHYINLVRAVKWWRQQNSEDLPKYPKGYPLEHLIGNALDNGTTSMAQGLVQLMDTFLSRWAAIYNQKSKPWLSDHGVAEHDVMARLTAEDFCSFYEGIASAAEIARNALASEEPQESAQLWRQLFGSKFPLPGPQGGDRNGGFTTPSKPAEPQKTGRFA	~70	~30	
CdnE: E. coli cGAS/DncV-like nucleotidyltransferase, SEQ ID NO: 166 (protein, listed as Escherichia coli) MGIPESQLDTWSHQGSIAQSASTYSIIKNALESANTKYHGKNFKVFLQGSYGNDTNIYAESDVDVVICLDDVYYSDLTQLSPEDKDAYDRAFVPATYSYTQFKQDVLEALTERFGSDVKVGDKAIVVAANGSRRKADVIASMQFRRYWKFKGHYDSQYDEGICFFNGAGERIANYPKQHSENLTLKHQASNKWLKPMVRVLKNLRSKLIADGKLKSGLAPSYYLEGLLYNVPNEKFGTSYADCFVNAMNWIQTEADKDKLVCANEQYYLLWEGTHTSWEKADAEAFIDAAIKMWNEW			~9.4
